No constants are given. Whether binding was seen depends on the method and setting. Some entries that bind do so weakly or less than the wild type.
B1: ILB882 (peptide)
peptide: FNEDCMWDPLLMDCAYSPGQGSAAGGGSPWLDPQWDIW
B2: ILB881 (peptide)
peptide: FNEDCMWDPLLMDCAYSPGQGSATGGSAAGGGSICNWEEVDPHCA
B3: ILB883 (peptide)
peptide: FNEDCMWDPLLMDCAYSPAGGSRNSWICMEWHCSDLTR
B4: ILB886 (peptide)
peptide: FNEDCMWDPLLMDCAYSPGQGSAAGGGSQCKAYMPQCA
B5: ILB893 (peptide)
peptide: FNEDCMWDPLLMDCAYSPGQGSAAGGGSNCLIAEWECE
B6: ILB906 (peptide)
peptide: FNEDCMWDPLLMDCAYSPGQGSATGGSAAGGGSSGWEHSSIVF
B7: ILB904 (peptide)
peptide: FNEDCMWDPLLMDCAYSPGQGSATGGSAAGGSGVTGCSGFPTTGTCSQHEQG
B8: ILB894 (peptide)
peptide: FNEDCMWDPLLMDCAYSPGQGSAAGGGSWEVPRSLWGQGQAGPGGGSG
B9: ILB884 (peptide)
peptide: FNEDCMWDPLLMDCAYSPGQGSATGGSAAGGGSWGYQQSWVQQ
B10: ILB898 (peptide)
peptide: FNEDCMWDPLLMDCAYSPGQGSAAGGSNIDFQCYPFKCGVLFSQG
B11: ILB889 (peptide)
peptide: FNEDCMWDPLLMDCAYSPGQGSATGGSGSTASAAGGGSQQKERISPWP
B12: ILB900 (peptide)
peptide: FNEDCMWDPLLMDCAYSPGQGSATGGSGSTASAAGGGSPCQNQPSYQVCT
B13: ILB895 (peptide)
peptide: FNEDCMWDPLLMDCAYSPGQGSATGGSGSTASAAGGSMSLECESYGIGWCSLLH
B14: ILB902 (peptide)
peptide: FNEDCMWDPLLMDCAYSPGQGSAAGGGSFFHWPTKAKE
B15: ILB901 (peptide)
peptide: FNEDCMWDPLLMDCAYSPGQGSATGGSAAGGSLRQSCYPIPESEKCSFSNQG
B16: ILB896 (peptide)
peptide: FNEDCMWDPLLMDCAYSPGQGSAAGGSHISTCKLIMGAYAHCQTPSQG
B17: ILB880 (peptide)
peptide: FNEDCMWDPLLMDCAYSPGQGSATGGSGSTASAAGGGSLCFSNWDEMKCF
B18: ILB888 (peptide)
peptide: FNEDCMWDPLLMDCAYSPGQGSATGGSAAGGGSTREMLVHPRH
B19: ILB885 (peptide)
peptide: FNEDCMWDPLLMDCAYSPGQGSATGGSAAGGSLTVSNCQEEICMQDEYQG
B20: ILB905 (peptide)
peptide: FNEDCMWDPLLMDCAYSPGQGSATGGSAAGGGSLDYHDIPRHA
B21: ILB890 (peptide)
peptide: FNEDCMWDPLLMDCAYSPGQGSAAGGGSFNINNIYVGN
B22: ILB908 (peptide)
peptide: FNEDCMWDPLLMDCAYSPGQGSAAGGGSQCALKSFTVPCN
B23: ILB903 (peptide)
peptide: FNEDCMWDPLLMDCAYSPGQGSATGGSAAGGGSQCEFEQEECW
B24: ILB899 (peptide)
peptide: FNEDCMWDPLLMDCAYSPGQGSAAGGGSGCSSTPFAWSCS
B25: ILB892 (peptide)
peptide: FNEDCMWDPLLMDCAYSPGQGSAAGGSMQTSCEFHEKYERHGCQQLSQG
B26: ILB887 (peptide)
peptide: FNEDCMWDPLLMDCAYSPAGGGSSWQRHDGHQI
B27: ILB907 (peptide)
peptide: FNEDCMWDPLLMDCAYSPGQGSAAGGGSWWSPAYGWQN
B28: ILB897 (peptide)
peptide: FNEDCMWDPLLMDCAYSPGQGSAAGGGSLQQGRRHHMR
B29: ILB891 (peptide)
peptide: FNEDCMWDPLLMDCAYSPGQGSAAGGGSVSSYNPWIIY
B30: ILB879 (peptide)
peptide: FNEDCMWDPLLMDCAYSPGQGSAAGGSLEASCAQSDQCFRQSQG
B31: ANG12 (peptide)
peptide: SACHPLIHNRCG
B32: ANG28 (peptide)
peptide: QCMWMWYQCR
B33: ANG18 (peptide)
peptide: TCIFNFPACI
B34: ANG7 (peptide)
peptide: SACGSYNHPMCG
B35: ANG29 (peptide)
peptide: KCPDMWPECW
B36: ANG10 (peptide)
peptide: SACQSSVCFFVRWRF
B37: ANG31 (peptide)
peptide: LCWNHWWMCE
B38: ANG34 (peptide)
peptide: ECYHHWPECM
B39: ANG4 (peptide)
peptide: SACGTFTHPQCG
B40: ANG23 (peptide)
peptide: KCPDMWPQCW
B41: ANG30 (peptide)
peptide: PCQYWWVLCP
B42: ANG26 (peptide)
peptide: RCYEVWWDCA
B43: ANG24 (peptide)
peptide: KCPDMWPMCW
B44: ANG20 (peptide)
peptide: MCPDFGMFIYCI
B45: ANG32 (peptide)
peptide: FCHEYTPACCW
B46: ANG6 (peptide)
peptide: SACHPMAPKSCG
B47: ANG19 (peptide)
peptide: FCDEYTPAWCW
B48: ANG33 (peptide)
peptide: KCPDFWPECW
B49: ANG2 (MRD Ref. No., SEQ ID NO:136) (peptide)
peptide: SACDHPMNNKCG
B50: ANG27 (peptide)
peptide: ACIPDLFLCM
B51: ANG25 (peptide)
peptide: QCEWIWVACDGQAGPAGFCYEHMLMCA
B52: ANG8 (peptide)
peptide: SACGSYEHPMCG
B53: ANG22 (peptide)
peptide: QCQEVISACFGQAGQGGGSGGSQCWLMELVCL

The chains behind the UniProt entries cited, without tags or fusion partners. Residues count along the entry.
UniProt P05231, residues 30-212: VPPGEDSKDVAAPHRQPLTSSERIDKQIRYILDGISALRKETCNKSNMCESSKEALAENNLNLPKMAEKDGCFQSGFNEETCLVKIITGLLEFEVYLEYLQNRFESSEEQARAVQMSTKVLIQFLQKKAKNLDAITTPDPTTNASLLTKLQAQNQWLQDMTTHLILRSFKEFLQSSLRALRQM

Molecular target: IL6 (UniProt P05231)
Assay: MRD identification, Example 48

binding, binds:
B1
B2
B3
B4
B5
B6
B7
B8
B9
B10
B11
B12
B13
B14
B15
B16
B17
B18
B19
B20
B21
B22
B23
B24
B25
B26
B27
B28
B29
B30

Molecular target: T1, Angiopoietin-2 (Ang2) (human, UniProt O15123 19-496, biotin label in Examples 22-24)
T1 construct: also called rhAng2; recombinant Ang2
T1 sequence (looked up): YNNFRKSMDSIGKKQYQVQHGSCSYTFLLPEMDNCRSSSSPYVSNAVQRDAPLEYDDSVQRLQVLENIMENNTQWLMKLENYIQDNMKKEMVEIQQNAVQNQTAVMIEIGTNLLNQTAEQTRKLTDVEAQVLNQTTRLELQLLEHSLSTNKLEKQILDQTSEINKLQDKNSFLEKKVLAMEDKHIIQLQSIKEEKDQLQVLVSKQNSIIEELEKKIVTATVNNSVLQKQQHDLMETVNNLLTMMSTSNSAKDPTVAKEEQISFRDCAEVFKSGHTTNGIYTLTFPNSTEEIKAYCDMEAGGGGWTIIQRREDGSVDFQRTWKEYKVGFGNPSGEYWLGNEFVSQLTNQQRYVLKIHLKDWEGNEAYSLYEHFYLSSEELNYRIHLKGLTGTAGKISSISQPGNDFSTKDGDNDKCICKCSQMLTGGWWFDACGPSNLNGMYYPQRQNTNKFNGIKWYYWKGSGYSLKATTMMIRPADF
Assay: Example 48, method not detailed

binding, binds:
B31
B32
B33
B34
B35
B36
B37
B38
B39
B40
B41
B42
B43
B44
B45
B46
B47
B48
B49
B50
B51
B52
B53
